For at least one compound, name, drawing or mass did not settle the structure.
Test: Pharmacokinetic studies in rats (oral bioavailability)
Type: in vivo, male Sprague-Dawley rats
Description: Groups of five male Sprague-Dawley rats weighing 250 to 300 g were utilized per dosing group. One day prior to dosing, venous and arterial catheters (made of 20 cm long polyurethane coiled tubing, and filled with 100 units/mL heparinized saline) were implanted into the jugular vein and carotid artery of each rat. Rats were fasted overnight prior to oral dosing and fed approximately 2 hours post-dosing. All dosing and blood sampling was performed on fully conscious rats. Tested compounds were administered either by oral gavage as solutions in water, or by intravenous injection (Apo805K1 only) as solution in 0.9% sodium chloride, final pH 7.0, at doses equivalent to 5 mg/kg (per Apo805 content). Blood (0.3 mL) was sampled from each animal from the carotid artery for up to 30 hours post-dosing, each sampling followed by an equivalent naive-blood replacement. The blood sample was immediately centrifuged (4300×g for 5 minutes at 4° C.), and frozen at −80° C. until LC/MS/MS analysis. […]
A Sciex API 365 LC/MS/MS spectrophotometer equipped with Ionics EP10+ and HSID, was used. […] Samples were analysed for the concentration of Apo805. […]
Non-compartmental analysis was performed using WinNonlin 5.2 software, on individual animal data. Bioavailability was calculated as a ratio of AUCINF—D after oral dosing of test compound to AUCINF—D after IV dosing of Apo805K1.

COC(=O)[C@@H](Cc1c[nH]c2ccccc12)NC(=O)CC[C@@H](N)C(=O)OCc1ccccc1 [Apo804, H-D-Glu(D-Trp-OMe)-O—CH2Ph]
oral bioavailability compared with Apo805: improved
